Test results taken from PMC6322289.
These are yes or no findings as the source states them, for the method shown. Some binding calls cover weakened binding; strength is not graded here.

Amino acid sequences for entries named in this document (tags omitted). Residues count along the entry.
UniProt P52407, residues 37-356: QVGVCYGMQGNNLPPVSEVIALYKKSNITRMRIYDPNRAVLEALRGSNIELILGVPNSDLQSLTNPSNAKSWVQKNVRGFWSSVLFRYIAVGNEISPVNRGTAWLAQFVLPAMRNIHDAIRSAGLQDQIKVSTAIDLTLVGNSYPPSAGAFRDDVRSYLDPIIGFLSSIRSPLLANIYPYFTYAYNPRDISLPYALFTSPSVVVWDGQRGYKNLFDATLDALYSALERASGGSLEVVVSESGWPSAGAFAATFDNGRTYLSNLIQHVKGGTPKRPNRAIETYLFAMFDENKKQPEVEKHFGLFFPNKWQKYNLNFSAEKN

T1: pro-hevein (Hevea brasiliensis (endogenous in latex of clone CATAS7-33-97)) (UniProt P02877)
T1 sequence: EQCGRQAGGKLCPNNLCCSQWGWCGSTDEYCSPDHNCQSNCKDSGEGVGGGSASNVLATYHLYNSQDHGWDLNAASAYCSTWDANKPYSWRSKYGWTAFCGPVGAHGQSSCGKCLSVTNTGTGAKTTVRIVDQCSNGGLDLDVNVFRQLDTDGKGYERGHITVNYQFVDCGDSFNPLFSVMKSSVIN

B1: pro-hevein (protein, UniProt P02877 18-204)
chain: T1 sequence

Assays:
[1] = molecular target: β-1,3-glucanase (Hevea brasiliensis (endogenous in latex of clone CATAS7-33-97)) (UniProt P52407); test: SEC; clarified B-serum on Sephacryl S-200HR (70 x 2.6 cm), eluted with 50 mM Tris-HCl + 25 mM NaCl, pH 7.2; peaks read by Tricine-SDS-PAGE and western blotting; control elution at pH 5.5
[2] = molecular target: T1, pro-hevein (Hevea brasiliensis (endogenous in latex of clone CATAS7-33-97)); test: as above

Binder | binding [1] | binding [2]
EQCGRQAGGKLCPNNLCCSQWGWCGSTDEYCSPDHNCQSNCKD (peptide, UniProt P02877 18-60) [hevein] | binds | binds
B1 | binds | –
